Consider two substances from paper PMC11796372.

The target of assay [1] is T1, H-NS (E. coli chromosomal nucleoid-structuring protein), full-length, low-copy two-hybrid fusion (E. coli (BW25113, K12)) (UniProt P0ACF8).
T1 sequence: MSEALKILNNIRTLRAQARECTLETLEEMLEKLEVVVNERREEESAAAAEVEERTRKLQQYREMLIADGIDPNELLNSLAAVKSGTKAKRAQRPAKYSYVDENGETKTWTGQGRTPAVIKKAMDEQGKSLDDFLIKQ
The assay can be described thus: two-hybrid.

For assay [2], the target named is T2, Hha with the adenylate cyclase fragment fused to its C-terminus (E. coli (BW25113, K12)) (UniProt P0ACE3).
T2 sequence: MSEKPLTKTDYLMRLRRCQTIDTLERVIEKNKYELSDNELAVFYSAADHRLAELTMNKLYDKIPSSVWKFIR
As to the kind of experiment: two-hybrid.

Assay [3] has as its target T3, Hha with the adenylate cyclase fragment fused to its N-terminus (E. coli (BW25113, K12)) (UniProt P0ACE3).
T3 sequence: T2 sequence
As to the kind of experiment: two-hybrid.

In assay [4] the target is T4, Cnu (YdgT), paralog of Hha (E. coli (BW25113, K12)) (UniProt P64467).
T4 sequence: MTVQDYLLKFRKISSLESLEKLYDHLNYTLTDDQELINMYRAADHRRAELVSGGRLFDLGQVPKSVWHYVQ
The assay can be described thus: condition: only Cnu expressed from the low-copy vector (pKT25/pKNT25); two-hybrid; bacterial two-hybrid as above, combination with Cnu on the low-copy vector (pKT25/pKNT25) and Sfx on the high-copy vector (pUT18); 30°C, 24 h.

Assay [5] has as its target T4, Cnu (YdgT), paralog of Hha (E. coli (BW25113, K12)). The assay can be described thus: two-hybrid; bacterial two-hybrid (split adenylate cyclase, T18 on high-copy pUT18/pUT18C, T25 on low-copy pKT25/pKNT25) in E. coli BTH101; overnight cultures spotted on LB agar with ampicillin, kanamycin, X-gal and IPTG; 30°C, 24 h or 48 h (pUT18C::hha, pUT18C::cnu); blue spot = interaction.

The target of assay [6] is T5, H-NS (M1-G85), truncated H-NS lacking its DNA-binding domain (E. coli (BW25113, K12)) (UniProt P0ACF8).
T5 sequence: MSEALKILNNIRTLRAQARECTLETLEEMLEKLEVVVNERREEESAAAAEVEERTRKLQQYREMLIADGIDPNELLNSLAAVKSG
The description is as above.

For assay [7], the target named is T6, StpA (E. coli paralog of H-NS) (E. coli (BW25113, K12)) (UniProt P0ACG1).
T6 sequence: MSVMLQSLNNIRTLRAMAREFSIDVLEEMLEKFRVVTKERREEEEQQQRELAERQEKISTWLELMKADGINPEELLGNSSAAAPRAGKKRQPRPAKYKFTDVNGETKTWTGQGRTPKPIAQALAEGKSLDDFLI
Described as above.

Results are given in words; binding and its absence hold for the method and conditions named. For part of these data: A result given as binding can be weak or reduced; the word gives no strength. For part of these data: Where a sequence is shown, tags or fusion partners need not be part of it.

For the substance “Sfx (H-NS homolog encoded by the IncX2 plasmid R6K), wild type (from UniProt I6RFM1)”, the binding entry in assay [1] is recorded as “binds”; in assay [2], “binds”; in assay [3], “binds”; in assay [4], “no binding”; in assay [5], “binds”; in assay [6], “binds”. Further, the binding entry in assay [7] is “binds”.
For the substance “Sfx (∆NT), N-terminally truncated variant (∆D3-E8) (plasmid R6K (IncX2))”, the binding entry in assay [2], in assay [3], in assay [5], in assay [6] and in assay [7] was “no binding” throughout.
